Results are given in words; binding and its absence hold for the method and conditions named. For part of these data: Binding can be weak; no strength is given.
Columns and labels:
PBP7 (E. coli) = target: T1, PBP7 (E. coli) (UniProt P0AFI5); assay: MST + pull-down
T1 sequence (chain, NT647 RED-NHS dye on amines where used as the labelled partner (fl-PBP7)): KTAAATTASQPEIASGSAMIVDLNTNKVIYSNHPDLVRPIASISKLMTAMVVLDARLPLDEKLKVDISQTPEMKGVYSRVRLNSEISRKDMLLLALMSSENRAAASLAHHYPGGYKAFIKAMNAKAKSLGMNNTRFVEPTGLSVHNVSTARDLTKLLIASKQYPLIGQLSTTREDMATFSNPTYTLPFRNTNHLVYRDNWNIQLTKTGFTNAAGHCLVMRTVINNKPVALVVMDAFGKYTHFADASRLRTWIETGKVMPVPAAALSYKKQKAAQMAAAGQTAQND

By UniProt entry, the sequences of proteins in these tests, tags left out. Where a name states a change or a piece, a line headed by the entry shows the natural chain unless it says otherwise. Residues count along the entry.
UniProt P0AFS9: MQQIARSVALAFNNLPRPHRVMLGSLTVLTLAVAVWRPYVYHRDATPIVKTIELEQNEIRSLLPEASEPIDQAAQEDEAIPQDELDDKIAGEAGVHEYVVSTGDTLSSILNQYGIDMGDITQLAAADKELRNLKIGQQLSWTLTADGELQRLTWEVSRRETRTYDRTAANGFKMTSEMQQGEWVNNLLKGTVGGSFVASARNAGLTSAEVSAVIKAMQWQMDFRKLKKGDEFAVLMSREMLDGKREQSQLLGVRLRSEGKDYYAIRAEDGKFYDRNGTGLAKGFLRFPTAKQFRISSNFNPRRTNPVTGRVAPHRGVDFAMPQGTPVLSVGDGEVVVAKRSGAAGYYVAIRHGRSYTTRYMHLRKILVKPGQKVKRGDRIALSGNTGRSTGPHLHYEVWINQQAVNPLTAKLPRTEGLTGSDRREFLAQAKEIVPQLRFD
UniProt P24228, residues 21-477: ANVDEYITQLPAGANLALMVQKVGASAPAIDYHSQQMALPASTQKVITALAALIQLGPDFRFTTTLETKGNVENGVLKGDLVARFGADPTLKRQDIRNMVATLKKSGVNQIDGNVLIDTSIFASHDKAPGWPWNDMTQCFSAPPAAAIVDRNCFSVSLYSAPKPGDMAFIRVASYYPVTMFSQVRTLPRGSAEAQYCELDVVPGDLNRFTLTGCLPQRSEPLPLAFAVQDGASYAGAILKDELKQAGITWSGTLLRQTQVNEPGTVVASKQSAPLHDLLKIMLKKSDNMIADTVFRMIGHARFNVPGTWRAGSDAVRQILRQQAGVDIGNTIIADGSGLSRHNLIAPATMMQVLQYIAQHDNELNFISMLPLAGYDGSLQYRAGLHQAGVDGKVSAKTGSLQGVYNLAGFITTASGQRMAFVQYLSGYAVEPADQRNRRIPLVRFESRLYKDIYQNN

[1] = target: T2, NlpI (soluble version, residues 19-294) (E. coli) (UniProt P0AFB1); assay: pull-down
T2 sequence (chain, NT647 RED-NHS dye on amines where used as the labelled partner (fl-NlpI)): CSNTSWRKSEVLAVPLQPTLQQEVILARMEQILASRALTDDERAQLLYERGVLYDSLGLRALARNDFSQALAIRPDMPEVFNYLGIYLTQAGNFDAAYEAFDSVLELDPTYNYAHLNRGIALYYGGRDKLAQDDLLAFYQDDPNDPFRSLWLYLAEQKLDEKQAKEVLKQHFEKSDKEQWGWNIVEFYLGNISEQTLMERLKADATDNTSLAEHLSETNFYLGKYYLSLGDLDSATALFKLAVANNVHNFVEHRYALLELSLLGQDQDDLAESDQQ

MepM (E. coli) = MepM (E. coli) (UniProt P0AFS9); assay: MST

| Substance | binding (PBP7 (E. coli)) | binding [1] | binding (MepM (E. coli)) |
| --- | --- | --- | --- |
| MepM (from UniProt P0AFS9) (enzyme) | no binding | binds |  |
| PBP4 (native) (from UniProt P24228 21-477) (enzyme) |  |  | no binding (tested: 50 μM) |

From article doi:10.1101/609503
